Experimental data reported in PubChem BioAssay AID651803 (National Center for Advancing Translational Sciences (NCATS), 2012).
Screen size: about 1,200 compounds; fewer than 10 were called active. The call rests on the fitted dose curve; in most records, active means well fitted curve in the direction sought with a large enough effect; inconclusive means small, poorly fitted or top-dose-only effect, or another doubt; inactive means no such curve, though single readings can be large or run the other way. Some of the results follow.

Sequences of proteins named here, by UniProt entry; tags and fusion partners are left off. A change or cut given only in a name is not applied to a line headed by its entry.
UniProt P11308: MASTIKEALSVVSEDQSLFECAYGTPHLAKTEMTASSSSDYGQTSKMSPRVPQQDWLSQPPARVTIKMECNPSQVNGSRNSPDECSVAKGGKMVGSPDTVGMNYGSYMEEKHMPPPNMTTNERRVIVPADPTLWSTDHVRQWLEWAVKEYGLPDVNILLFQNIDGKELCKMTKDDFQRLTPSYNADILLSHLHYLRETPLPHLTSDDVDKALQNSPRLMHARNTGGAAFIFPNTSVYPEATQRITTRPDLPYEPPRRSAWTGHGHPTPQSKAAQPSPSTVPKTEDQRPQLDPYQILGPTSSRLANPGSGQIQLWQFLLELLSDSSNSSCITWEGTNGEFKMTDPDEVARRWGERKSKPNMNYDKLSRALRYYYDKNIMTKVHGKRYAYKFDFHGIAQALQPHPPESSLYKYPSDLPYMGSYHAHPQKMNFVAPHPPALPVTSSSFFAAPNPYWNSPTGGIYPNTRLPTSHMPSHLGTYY

molecular target: Transcriptional regulator ERG (Homo sapiens) (UniProt P11308); experiment: qHTS for Small Molecule Inhibitors of the ERG Ets/DNA interaction: TR assay against cherry picks; settings: ERG Ets domain-DNA fluorescence polarization, Texas red probe; at 154 µM (top of the series); further: % of control where 0% means no effect
Procedure, shortened: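 Polarization read sequentially for fluorescein (ex 480/em 535 nm) and Texas red (ex 555/em 632 nm) probes, 5 nM and 100 nM solutions, displaced from His-ERG Ets domain (1 uM solution), pH 7.5 Tris/KCl/EDTA/DTT buffer.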

Activity change, negative = inhibition, inactive:
CC1(C)C2CCC1(CS(=O)(=O)N1CCC(C(N)=O)CC1)C(=O)C2 (configuration not stated) 18.6%, O=C(COC(=O)c1cccc(-n2cnnn2)c1)c1ccccc1 -8.77%, O=C(COC(=O)/C=C/c1cccc(C(F)(F)F)c1)NC1CCS(=O)(=O)C1 (configuration not stated) -22.4%, O=S(=O)(NCCNS(=O)(=O)c1ccc(F)cc1)c1ccc(F)cc1 21.4%, Cc1cc2cc(CNC(=O)c3cccc([N+](=O)[O-])c3)ccc2[nH]1 1.92%, COC(=O)c1ccc(C2=NOC(C)(c3sc(-c4ccccc4)nc3C)C2)cc1 (configuration not stated) -5.17%, Nc1c2ccccc2nc2ccccc12 -12.1%, CCCCC1=NN(C(=O)c2ccco2)C(O)(C(F)(F)F)C1 (configuration not stated) -2.3%, Cc1cc(S(=O)(=O)N2CCOCC2)ccc1OCC(=O)Nc1ccc(F)c(Cl)c1 3.47%, COc1ccc(/C=N/NC(=O)c2ccc(Br)cc2)c(OC)c1 0.107%, COc1ccccc1C(=O)Nn1c(-c2cccs2)nc2ccccc2c1=O 2.95%, O=C(CN1C(=O)NC2(CCCC2)C1=O)NNC(=O)c1ccc(Cl)cc1 -0.343%, COc1cc(CCC(=O)Nc2ccc(Br)c(C(F)(F)F)c2)cc(OC)c1OC 4.91%, Cc1cc(C)nc(N2C(=O)CC(Cc3ccc(Cl)cc3)C2=O)n1 (configuration not stated) -7.35%, CCc1ccccc1NC(=O)CSc1nnc(COc2ccccc2Cl)o1 -12.6%, Cc1cc(C)nc(N2CCCC(C(=O)Nc3ccc(F)cc3)C2)n1 (configuration not stated) -9.81%, C=CCC[C@H](Cc1ccc(F)cc1)C(=O)OC[C@@H](Cc1c[nH]c2ccccc12)NC(=O)[C@H](CC=C)CC(=O)N(CCO)Cc1ccccc1 -7.14%, CC(C)(CNC(=O)CC1C(=O)NCCN1Cc1cccc(F)c1)N1CCOCC1 (configuration not stated) 0.0185%, COC(=O)c1ccsc1NC(=O)c1cccc(OC)c1 -16.4%, CC(=O)c1cc(-c2ccccc2)n(CCC(=O)NC(C)(C)C)c1C 0.0296%, COc1ccc(Oc2ccc(N/C=C3\CCCC3=O)cc2)cc1 11.5%, O=C(Oc1ccc(Br)cc1)c1n[nH]c(=O)c2ccccc12 1.69%, COc1ccc(OCCCC(=O)Nc2cccc(C(C)=O)c2)cc1 -4.19%, O=c1o[nH]c(-c2ccccc2)c1-c1ccccc1 -5.75%, Cc1ccc(C(=O)NC(=S)Nc2ccc(NC(=O)c3cccc(Cl)c3)cc2)cc1 -1.07%, COc1ccc(S(=O)(=O)N2CC(C)OC(C)C2)cc1C(=O)N1CCCCC1 (configuration not stated) 3.8%, Nn1c(Cc2ccccc2)nc2sc3c(c2c1=O)CCC3 5.36%, Cc1cc(/C=C2\C(=N)N3N=C(C(C)C)SC3=NC2=O)c(C)n1-c1ccccc1 -6.98%, O=c1[nH]cc(S(=O)(=O)Nc2ccc3c(c2)OCO3)c(=O)[nH]1 5.59%, CCOC(=O)C1CCC(CN(Cc2ccccc2C)S(=O)(=O)c2ccc([N+](=O)[O-])cc2)CC1 (configuration not stated) -8.45%, Cc1ccc(NS(=O)(=O)c2ccc(CCC(=O)NCCCOC(C)C)cc2)cc1 -2.3%, Cc1cc(C(=O)N/N=C/c2c(C)nn(-c3ccccc3)c2Cl)n[nH]1 -13.2%, C[N+]1(C)C2CC(OC(=O)C(CO)c3ccccc3)CC1C1OC12 (configuration not stated) -7.03%, O=C(O)c1cc2c(s1)-c1ccccc1CC2 -7.43%, CCNC(=S)N(CCO)Cc1cc2cc3c(cc2[nH]c1=O)OCO3 0.136%, Cc1ccc(C)c(NC(=S)/C(=C(\[O-])c2ccc(OC(F)F)cc2)[n+]2ccccc2)c1 -6.17%, O=C(CN1C(=O)CS/C1=C\c1nc(-c2ccc(Cl)cc2)cs1)Nc1cccnc1Cl 4.61%, O=C1CCCC(O)=C1N=Nc1ccc(S(=O)(=O)N2CCOCC2)cc1 -11.4%, CCOc1cc(/C=C2\CCCc3c2nc2ccccc2c3C(=O)O)ccc1OC 47%, CCOC(=O)c1sc(NC(=O)c2c(-c3ccccc3)c(-c3ccccc3)nn(C)c2=O)nc1C -8.8%, Cc1ccc2c(COC(=O)c3ccccc3Br)cc(=O)oc2c1 -0.0577%, Cc1cc(C)cc(NC(=O)CCOc2ccccc2)c1 5.49%, COc1ccc(NC(=O)CSc2ccc(-c3ccco3)nn2)cc1OC 0.142%, CN(C(=O)COC(=O)c1ccc(F)c(S(=O)(=O)N2CCOCC2)c1)C1CCS(=O)(=O)C1 (configuration not stated) -7.37%, CNc1nc2ccccc2n(C)c1=O 2.19%, COc1ccc(NC(=O)C2CCN(C(=O)C3CC(=O)N(c4ccc(C)cc4)C3)CC2)cc1 (configuration not stated) 4.62%, CCOC(=O)C(CC)Sc1ccc2nnc(-c3cccnc3)n2n1 (configuration not stated) -20.8%, CNCC(O)CN1CCN(c2ccccc2OC)CC1 (configuration not stated) 5.62%, COc1ccc2cc(CO)c(Cl)nc2c1 4.04%, Cc1noc(C)c1S(=O)(=O)N(CC(=O)NCc1ccc(F)cc1)c1ccc(C(C)C)cc1 -12.4%, N#C/C(=C\c1ccc(-c2ccccc2[N+](=O)[O-])o1)C(N)=O -9.59%, CC(C)CN1C2CCCC1CC(NC(=S)NCc1ccco1)C2 (configuration not stated) -8.14%, CCCOc1ccc(C2c3c(-c4ccccc4O)n[nH]c3C(=O)N2CCc2ccccc2)cc1OCC (configuration not stated) -6.68%, COc1ccc(CCn2c(C)cc(C(=O)COC(=O)c3cnc(C)cn3)c2C)cc1 -8.89%, COc1ccc(CN2CCC(C(=O)N3CCCC(C)C3)CC2)cc1OC (configuration not stated) 8.66%, Cc1ccc(C)c(NC(=O)COC(=O)c2ccc[n+]([O-])c2)c1 0.543%, COC(=O)c1sccc1NC(=O)/C=C/C(=O)O -5.73%, O=C(CSC1=NCCS1)NC(NC(=O)CSC1=NCCS1)c1ccccc1 -15.3%, c1ccc([C@H]2CN3C(=N2)Sc2ccccc23)cc1 -13.6%, Cc1ccc(NC(=O)C2CC(O)CN2C(=O)OCc2ccccc2)c(C)c1 (configuration not stated) -3.93%, CCOc1ccc(NC(=O)CSc2nc(-c3cccs3)cc(C(F)(F)F)c2C#N)cc1 12.5%, CCOC(=O)CSc1nncc2ccc(OC)c(OC)c12 3.08%, Cc1ccc(NCC(=O)N/N=C/c2c[nH]c3ccccc23)cc1 -11.6%, Cc1ccc(Cn2c(SCC(=O)N/N=C/c3ccccc3OCC(=O)O)nc3ccccc32)cc1 14.1%, Cc1c(NC(=O)c2cc(-n3cnnc3)ccc2Cl)cccc1-c1nc2ccccc2s1 -4.71%, COc1ccccc1CNC(=O)CCNC(=O)C1CCN(S(=O)(=O)c2ccccc2)CC1 -4.44%, Oc1ccc(NCc2cccs2)cc1 -7.78%, CC(C)n1c(SCc2ccccc2F)nc2c1c(=O)n(C)c(=O)n2C -13.1%, Cc1nonc1C1CCCN1C(=O)c1cc(COc2ccc(F)cc2Cl)on1 (configuration not stated) -0.16%, COC(=O)Cc1ccc(NC(=S)NC(C)(C)C)cc1 -0.76%, COc1cccc(C(=O)OCC(=O)Nc2ccc(N3CCOCC3)cc2)c1 -3.12%, O=S(=O)(c1ccc(Cl)cc1)N1CCN(CCc2ccccc2)CC1 9.1%, CC(Oc1ccc(F)cc1)C(=O)Nc1ccc(S(=O)(=O)NC2=NCCCCC2)cc1 (configuration not stated) -11.1%, Cc1ccsc1/C=N/NC(=O)CO 1.33%, COc1cc(C(=O)Nc2ccc(S(=O)(=O)Nc3cc(C)nc(C)n3)cc2)cc(OC)c1OC 3.82%, Cc1cc2nc3c(=O)[nH]c(=S)[nH]c3nc2cc1NC(=O)C(F)(F)F 24.9%, Cc1cc(C[n+]2ncsc2N)c2ncccc2c1 5.54%, CCOc1ccc(N2C(=O)CC(N3CCN(C(=O)c4ccco4)CC3)C2=O)cc1 (configuration not stated) -13%, COc1ccc(S(=O)(=O)NNC(=S)NCCc2ccccc2)c(OC)c1 -10.3%, Cc1cc(F)ccc1NC(=O)c1ccc(NS(=O)(=O)c2cc(C(C)(C)C)ccc2C)cc1 4.71%, c1cnc(N2CCN(Cc3ccc4c(c3)OCO4)CC2)nc1 -5.83%, Nc1cccc(N2C(=O)c3cccc4c(N)ccc(c34)C2=O)c1 4.36%, COc1cc(CNCC2CCCO2)ccc1OCC(N)=O (configuration not stated) 5.44%, Cn1nc([N+](=O)[O-])c(C(C#N)c2ccccn2)c(Cl)c1=O (configuration not stated) 3.56%, Cc1ccc(NC(=O)c2cc3cc(OC(F)(F)F)ccc3[nH]2)cc1 4.35%, COC(=O)C(CSCc1ccccc1)NC(=O)CSc1nc(N)cc(=O)[nH]1 (configuration not stated) 0.742%, CCN(Cc1ccccc1)C(=O)COC(=O)CNC(=O)c1ccc(C)s1 -9.94%, CC(C)(O)CN(CCCNC(=S)Nc1ccccc1)C(=S)Nc1ccccc1 -0.187%, NCCCC(=O)O 11.5%, CC(CCC(=O)O)C1CCC2C3CCC4C[C@H](O)CCC4(C)C3CC(=O)C12C (some centres not stated) 3.49%, O=C(NCCCc1ccccc1)C(=O)NCC1OCCN1S(=O)(=O)c1ccccc1 (configuration not stated) 11.2%, C=COc1ccc(N2C(=O)c3ccccc3OC2C)cc1 (configuration not stated) -11.8%
